Results are given in words; binding and its absence hold for the method and conditions named. In cells and extracts the contact can be indirect.
Key:
[1] = biological target: pTINCR-SIMmut; assay: co-IP; U2OS cells co-transfected with pTINCR-HA and CDC42-Flag plasmids; anti-HA immunoprecipitation; anti-HA and anti-Flag blots
[2] = biological target: GST-SUMO1 (UniProt P63165); assay: pull-down; GST-SUMO1 or GST-SUMO2/3 bound onto glutathione-sepharose beads, incubated with protein extracts of U2OS cells (doxycycline 48 h) for 2 h at 4 °C; Western blot; only the target purified
[3] = biological target: GST-SUMO2/3 (UniProt P61956); assay: as above

Chains of the proteins cited; added tags and fusions are not shown. Lines headed by an entry give the natural chain unless they say otherwise; changes in a name come on top. Residues count along the entry.
UniProt P63165, residues 1-97: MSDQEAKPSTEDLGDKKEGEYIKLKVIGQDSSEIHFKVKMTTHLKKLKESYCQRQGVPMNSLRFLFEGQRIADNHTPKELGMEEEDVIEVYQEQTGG
UniProt P61956: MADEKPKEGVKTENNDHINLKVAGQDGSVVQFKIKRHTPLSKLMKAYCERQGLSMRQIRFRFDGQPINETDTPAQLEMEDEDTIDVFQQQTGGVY
UniProt P60953: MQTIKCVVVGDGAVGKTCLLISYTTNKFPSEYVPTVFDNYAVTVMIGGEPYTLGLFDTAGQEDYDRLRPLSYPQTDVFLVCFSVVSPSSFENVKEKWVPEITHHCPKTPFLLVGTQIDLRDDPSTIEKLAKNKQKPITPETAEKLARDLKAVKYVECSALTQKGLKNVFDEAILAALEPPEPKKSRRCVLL
UniProt A0A2R8Y7D0: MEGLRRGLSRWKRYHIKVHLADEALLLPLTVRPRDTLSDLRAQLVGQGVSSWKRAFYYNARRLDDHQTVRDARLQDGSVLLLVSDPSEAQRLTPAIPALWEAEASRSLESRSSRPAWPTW

binding [1] | binding [2] | binding [3] | Substance
no binding | – | – | CDC42-Flag (from UniProt P60953 1-191)
– | no binding | no binding | pTINCR-SIMmut (from UniProt A0A2R8Y7D0)
